Laboratory results: PubChem BioAssay AID504804 (Drosophila RNAi Screening Center, 2011)

Screen: 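dsRNAs that improve Kc cell survival under doxorubicin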 (primary screen)
Cell system: Drosophila Kc cells
Reagent: long dsRNA against Drosophila genes, 0.5 µg dsRNA per well
Time to read-out: 96 h (48 h knock-down, then 48 h drug)
Challenge: doxorubicin 5 µg/ml for 48 h, added 48 h after dsRNA
Read-out: 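Luminescent ATP counts per replicate, not normalised, reflecting viable cells after 48 h dsRNA knock-down followed by 48 h of 5 µg/ml doxorubicin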
Scale: raw ATP luminescence: higher = more viable cells, protection from doxorubicin
Hit rule: 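Active when both duplicate wells lie at least 2 SD above the plate mean and protection is confirmed by rescreening and independent dsRNAs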
In all, the deposit lists about 19,000 reagents; this is an unselected part of those that have a named target and a result. Over the whole deposit, 47 (0.25%) are marked active. 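Signals are raw, not normalised; exact z-scores behind calls not deposited; actives needed confirmation, so some wells reaching 2 SD are inactive.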 A number with no mark means an inactive call. Names joined by + are all predicted targets of the reagent.

predicted target | amplicon | SD above plate mean | raw ATP luminescence, replicate 1 | raw ATP luminescence, replicate 2
CG10341 (GeneID 35125) | DRSC02040 | – | 86920 | 59973
CG13116 (GeneID 34288) | DRSC02214 | – | 38577 | 51680
serp (GeneID 40150) | DRSC11035 | – | 70617 | 62487
serp (GeneID 40150) | DRSC11036 | – | 82883 | 72120
CG14453 (GeneID 40484) | DRSC11710 | – | 53667 | 56630
CG42372 + CG30100 | DRSC05602 | – | 1.13e5 | 1.09e5
CG43317 (GeneID 41916) | DRSC15000 | – | 80820 | 61270
CG3703 (GeneID 31045) | DRSC18172 | – | 51240 | 54060
CG3703 (GeneID 31045) | DRSC18173 | – | 61260 | 46880
CG3703 (GeneID 31045) | DRSC18643 | – | 72510 | 59280
zf30C (GeneID 34292) | DRSC03641 | – | 1.17e5 | 67950
dpr16 (GeneID 40619) | DRSC12217 | – | 70370 | 86330
dpr16 (GeneID 40619) | DRSC12249 | – | 1.43e5 | 1.75e5
CG17344 (GeneID 35185) | DRSC02607 | – | 51353 | 51007
Trpml + CG42638 | DRSC11032 | – | 19037 | 17307
l(2)09851 (GeneID 46662) | DRSC04858 | – | 45027 | 52713
CG9525 (GeneID 34217) | DRSC03249 | – | 39887 | 69393
CG14566 (GeneID 40421) | DRSC11727 | – | 71390 | 62763
CG13721 (GeneID 38556) | DRSC08330 | – | 86447 | 99923
CG12637 (GeneID 31996) | DRSC17845 | – | 3.26e5 | 2.91e5
CG8613 (GeneID 36593) | DRSC07222 | – | 70827 | 65540
CG9222 (GeneID 33867) | DRSC03158 | – | 38830 | 21330
Obsc (GeneID 3346201) | DRSC04301 | – | 1.96e5 | 2.15e5
Obsc (GeneID 3346201) | DRSC04302 | – | 75577 | 65567
Obsc (GeneID 3346201) | DRSC04303 | – | 57947 | 85423
Obsc (GeneID 3346201) | DRSC04430 | – | 63293 | 59117
CG18581 (GeneID 39633) | DRSC10324 | – | 61537 | 52267
CG12974 (GeneID 40350) | DRSC11684 | – | 49600 | 50937
CG15269 (GeneID 34887) | DRSC01942 | – | 63413 | 72787
CG7382 (GeneID 33772) | DRSC03052 | – | 95110 | 53753
chrb (GeneID 39284) | DRSC11335 | – | 28523 | 37557
CG15599 (GeneID 32503) | DRSC19668 | – | 3.31e5 | 3.26e5
CG5953 (GeneID 34985) | DRSC01546 | – | 2.12e5 | 2.39e5
CG5953 (GeneID 34985) | DRSC02914 | – | 19277 | 24437
SkpC (GeneID 32996) | DRSC20375 | – | 3.72e5 | 3.32e5
FIG4 (GeneID 33658) | DRSC00515 | – | 1.08e5 | 57553
RhoGAP93B (GeneID 42496) | DRSC15488 | – | 66890 | 65020

8 entries from above, reduced to “raw ATP luminescence, replicate 2”.
CG10341 (GeneID 35125) [DRSC02040]	59973
CG13116 (GeneID 34288) [DRSC02214]	51680
serp (GeneID 40150) [DRSC11035]	62487
serp (GeneID 40150) [DRSC11036]	72120
CG14453 (GeneID 40484) [DRSC11710]	56630
CG42372 + CG30100 [DRSC05602]	1.09e5
CG43317 (GeneID 41916) [DRSC15000]	61270
CG3703 (GeneID 31045) [DRSC18172]	54060

Continued.
predicted target | amplicon | SD above plate mean | raw ATP luminescence, replicate 1 | raw ATP luminescence, replicate 2
Cpr67Fa1 (GeneID 39223) | DRSC10932 | – | 68787 | 75313
snRNP-U1-70K (GeneID 33982) | DRSC03612 | – | 23843 | 41160
CR13656 (GeneID 8674041) | DRSC13705 | – | 2.56e5 | 2.42e5
CR13656 (GeneID 8674041) | DRSC14656 | – | 59500 | 56050
CG11313 (GeneID 43646) | DRSC14295 | – | 54750 | 40830
CG7333 (GeneID 42334) | DRSC16229 | – | 58930 | 65830
CG5194 (GeneID 39037) | DRSC10492 | – | 53147 | 36243
Nplp2 (GeneID 50286) | DRSC09824 | – | 1.00e5 | 67190
bsk (GeneID 44801) | DRSC03499 | – | 98527 | 55430
CG31869 (GeneID 34490) | DRSC02582 | – | 42410 | 76317
CG31869 (GeneID 34490) | DRSC02674 | – | 40873 | 80660
Cdk2 (GeneID 42453) | DRSC16921 | – | 35713 | 35870
CG15471 (GeneID 31412) | DRSC18054 | – | 41590 | 45060
CG6345 (GeneID 41271) | DRSC16024 | – | 64813 | 55937
Arglu1 (GeneID 34320) | DRSC02909 | – | 31340 | 36237
Mocs2A + Mocs2B | DRSC13697 | – | 1.49e5 | 1.47e5
Mocs2A + Mocs2B | DRSC14219 | – | 70510 | 64730
CG42715 (retired record) (GeneID 10178969) | DRSC05499 | – | 74437 | 99243
CG13511 (GeneID 37597) | DRSC04153 | – | 52477 | 64853
ine (GeneID 33659) | DRSC00822 | – | 96443 | 60983
CG13527 (GeneID 37615) | DRSC04169 | – | 66383 | 51797
CG16700 (GeneID 32694) | DRSC19755 | – | 3.29e5 | 2.94e5
CG11050 (GeneID 33924) | DRSC02125 | – | 1.09e5 | 65607
asun (GeneID 41971) | DRSC16733 | – | 45907 | 40630
asRNA:CR33945 (GeneID 3772292) | DRSC14080 | – | 2.97e5 | 2.94e5
casp (GeneID 36769) | DRSC07164 | – | 55003 | 58853
PIG-H (GeneID 40944) | DRSC14856 | – | 73540 | 53147
CG18598 (GeneID 42188) | DRSC15356 | – | 48540 | 54920
PolZ2 (GeneID 40677) | DRSC12325 | – | 76190 | 64853
Vti1b (GeneID 42215) | DRSC16283 | – | 43090 | 37617
Vti1b (GeneID 42215) | DRSC16284 | – | 74200 | 95380
Sidpn (GeneID 35168) | DRSC02056 | – | 70090 | 64223
RnrS (GeneID 36280) | DRSC07533 | – | 49313 | 42853
CG14868 (GeneID 41875) | DRSC14991 | – | 1.88e5 | 2.14e5
CG30380 (GeneID 246579) | DRSC05069 | – | 71377 | 91817
AGBE (GeneID 326264) | DRSC06861 | – | 77207 | 67973
CG9853 (GeneID 40557) | DRSC12343 | – | 14873 | 26510
Smyd4-2 (GeneID 39414) | DRSC10126 | – | 63390 | 60233
CG34434 (GeneID 31472) | DRSC18134 | – | 23660 | 44310
por (GeneID 32818) | DRSC20362 | – | 3.45e5 | 3.06e5
dpy (GeneID 318824) | DRSC00233 | – | 2.74e5 | 2.71e5
dpy (GeneID 318824) | DRSC00234 | – | 2.80e5 | 2.50e5
dpy (GeneID 318824) | DRSC00472 | – | 43920 | 26697
CG8188 (GeneID 32751) | DRSC20090 | – | 3.74e5 | 3.04e5
CG2124 (GeneID 31989) | DRSC18208 | – | 3.62e5 | 3.22e5
CG7856 (GeneID 35533) | DRSC04896 | – | 54503 | 40927
Rbm13 (GeneID 31818) | DRSC17749 | – | 37550 | 44040
kto (GeneID 44830) | DRSC10983 | – | 27430 | 23863
CG43896 (GeneID 39360) | DRSC10754 | – | 81883 | 1.63e5
Coq6 (GeneID 33777) | DRSC03040 | – | 1.12e5 | 64577
CG13029 (GeneID 39886) | DRSC09909 | – | 99020 | 57867
l(2)efl (GeneID 37744) | DRSC04698 | – | 76867 | 69977
CG32036 (GeneID 39105) | DRSC10362 | – | 44677 | 51527
lz (GeneID 31883) | DRSC18790 | – | 3.92e5 | 3.75e5
Cngl (GeneID 32468) | DRSC20318 | – | 1.40e5 | 1.81e5
CG10748 (GeneID 39469) | DRSC09797 | – | 92020 | 95020
ppk13 (GeneID 3346226) | DRSC02382 | – | 50767 | 52457
CG43861 (GeneID 35284) | DRSC02308 | – | 60940 | 63003
Rab8 (GeneID 40168) | DRSC11261 | – | 21747 | 20557
Coa8 (GeneID 31148) | DRSC17959 | – | 64410 | 46610
Cyp313a5 (GeneID 41486) | DRSC16628 | – | 51897 | 48983
CG13036 (retired record) (GeneID 39823) | DRSC09916 | – | 75393 | 55813
CG13010 (GeneID 32643) | DRSC19529 | – | 3.40e5 | 2.76e5
Kdm4A (GeneID 35744) | DRSC06586 | – | 60237 | 66840
PIG-U (GeneID 34185) | DRSC02193 | – | 91460 | 1.06e5
Shawn + Tyler | DRSC19565 | – | 3.31e5 | 2.69e5
CG15930 (GeneID 31446) | DRSC18107 | – | 39130 | 51030
CG2202 (GeneID 32014) | DRSC19841 | at least 2 SD above plate mean | 2.02e5 | 2.25e5
CG11356 (GeneID 32178) | DRSC19401 | – | 3.06e5 | 3.05e5
CG5946 (GeneID 39336) | DRSC10560 | – | 79987 | 70660
